Holding throughout (assay): co-IP
Assay [1] deals with T1, GFP::PAR-5 (C. elegans) (UniProt P41932).
T1 sequence: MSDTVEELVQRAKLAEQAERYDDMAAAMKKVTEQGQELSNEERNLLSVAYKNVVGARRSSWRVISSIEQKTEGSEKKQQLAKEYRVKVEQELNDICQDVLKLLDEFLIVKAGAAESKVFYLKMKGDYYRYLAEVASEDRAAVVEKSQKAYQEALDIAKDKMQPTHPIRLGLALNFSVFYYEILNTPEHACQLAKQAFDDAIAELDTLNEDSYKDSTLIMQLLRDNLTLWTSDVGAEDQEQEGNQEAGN

The chains behind the UniProt entries cited, without tags or fusion partners.
UniProt P24734: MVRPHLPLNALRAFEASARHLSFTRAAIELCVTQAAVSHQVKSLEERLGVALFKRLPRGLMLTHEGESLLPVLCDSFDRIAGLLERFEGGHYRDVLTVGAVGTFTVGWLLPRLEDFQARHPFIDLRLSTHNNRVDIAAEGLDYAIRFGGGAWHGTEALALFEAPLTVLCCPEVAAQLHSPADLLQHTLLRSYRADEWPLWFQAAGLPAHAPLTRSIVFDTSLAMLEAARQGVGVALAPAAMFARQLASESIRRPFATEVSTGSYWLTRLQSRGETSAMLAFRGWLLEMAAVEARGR
UniProt Q9HWH1: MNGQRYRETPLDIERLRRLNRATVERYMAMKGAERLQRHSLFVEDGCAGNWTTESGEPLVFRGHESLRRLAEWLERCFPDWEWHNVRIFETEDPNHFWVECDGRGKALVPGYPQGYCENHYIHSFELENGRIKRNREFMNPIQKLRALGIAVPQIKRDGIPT
UniProt Q95Q95: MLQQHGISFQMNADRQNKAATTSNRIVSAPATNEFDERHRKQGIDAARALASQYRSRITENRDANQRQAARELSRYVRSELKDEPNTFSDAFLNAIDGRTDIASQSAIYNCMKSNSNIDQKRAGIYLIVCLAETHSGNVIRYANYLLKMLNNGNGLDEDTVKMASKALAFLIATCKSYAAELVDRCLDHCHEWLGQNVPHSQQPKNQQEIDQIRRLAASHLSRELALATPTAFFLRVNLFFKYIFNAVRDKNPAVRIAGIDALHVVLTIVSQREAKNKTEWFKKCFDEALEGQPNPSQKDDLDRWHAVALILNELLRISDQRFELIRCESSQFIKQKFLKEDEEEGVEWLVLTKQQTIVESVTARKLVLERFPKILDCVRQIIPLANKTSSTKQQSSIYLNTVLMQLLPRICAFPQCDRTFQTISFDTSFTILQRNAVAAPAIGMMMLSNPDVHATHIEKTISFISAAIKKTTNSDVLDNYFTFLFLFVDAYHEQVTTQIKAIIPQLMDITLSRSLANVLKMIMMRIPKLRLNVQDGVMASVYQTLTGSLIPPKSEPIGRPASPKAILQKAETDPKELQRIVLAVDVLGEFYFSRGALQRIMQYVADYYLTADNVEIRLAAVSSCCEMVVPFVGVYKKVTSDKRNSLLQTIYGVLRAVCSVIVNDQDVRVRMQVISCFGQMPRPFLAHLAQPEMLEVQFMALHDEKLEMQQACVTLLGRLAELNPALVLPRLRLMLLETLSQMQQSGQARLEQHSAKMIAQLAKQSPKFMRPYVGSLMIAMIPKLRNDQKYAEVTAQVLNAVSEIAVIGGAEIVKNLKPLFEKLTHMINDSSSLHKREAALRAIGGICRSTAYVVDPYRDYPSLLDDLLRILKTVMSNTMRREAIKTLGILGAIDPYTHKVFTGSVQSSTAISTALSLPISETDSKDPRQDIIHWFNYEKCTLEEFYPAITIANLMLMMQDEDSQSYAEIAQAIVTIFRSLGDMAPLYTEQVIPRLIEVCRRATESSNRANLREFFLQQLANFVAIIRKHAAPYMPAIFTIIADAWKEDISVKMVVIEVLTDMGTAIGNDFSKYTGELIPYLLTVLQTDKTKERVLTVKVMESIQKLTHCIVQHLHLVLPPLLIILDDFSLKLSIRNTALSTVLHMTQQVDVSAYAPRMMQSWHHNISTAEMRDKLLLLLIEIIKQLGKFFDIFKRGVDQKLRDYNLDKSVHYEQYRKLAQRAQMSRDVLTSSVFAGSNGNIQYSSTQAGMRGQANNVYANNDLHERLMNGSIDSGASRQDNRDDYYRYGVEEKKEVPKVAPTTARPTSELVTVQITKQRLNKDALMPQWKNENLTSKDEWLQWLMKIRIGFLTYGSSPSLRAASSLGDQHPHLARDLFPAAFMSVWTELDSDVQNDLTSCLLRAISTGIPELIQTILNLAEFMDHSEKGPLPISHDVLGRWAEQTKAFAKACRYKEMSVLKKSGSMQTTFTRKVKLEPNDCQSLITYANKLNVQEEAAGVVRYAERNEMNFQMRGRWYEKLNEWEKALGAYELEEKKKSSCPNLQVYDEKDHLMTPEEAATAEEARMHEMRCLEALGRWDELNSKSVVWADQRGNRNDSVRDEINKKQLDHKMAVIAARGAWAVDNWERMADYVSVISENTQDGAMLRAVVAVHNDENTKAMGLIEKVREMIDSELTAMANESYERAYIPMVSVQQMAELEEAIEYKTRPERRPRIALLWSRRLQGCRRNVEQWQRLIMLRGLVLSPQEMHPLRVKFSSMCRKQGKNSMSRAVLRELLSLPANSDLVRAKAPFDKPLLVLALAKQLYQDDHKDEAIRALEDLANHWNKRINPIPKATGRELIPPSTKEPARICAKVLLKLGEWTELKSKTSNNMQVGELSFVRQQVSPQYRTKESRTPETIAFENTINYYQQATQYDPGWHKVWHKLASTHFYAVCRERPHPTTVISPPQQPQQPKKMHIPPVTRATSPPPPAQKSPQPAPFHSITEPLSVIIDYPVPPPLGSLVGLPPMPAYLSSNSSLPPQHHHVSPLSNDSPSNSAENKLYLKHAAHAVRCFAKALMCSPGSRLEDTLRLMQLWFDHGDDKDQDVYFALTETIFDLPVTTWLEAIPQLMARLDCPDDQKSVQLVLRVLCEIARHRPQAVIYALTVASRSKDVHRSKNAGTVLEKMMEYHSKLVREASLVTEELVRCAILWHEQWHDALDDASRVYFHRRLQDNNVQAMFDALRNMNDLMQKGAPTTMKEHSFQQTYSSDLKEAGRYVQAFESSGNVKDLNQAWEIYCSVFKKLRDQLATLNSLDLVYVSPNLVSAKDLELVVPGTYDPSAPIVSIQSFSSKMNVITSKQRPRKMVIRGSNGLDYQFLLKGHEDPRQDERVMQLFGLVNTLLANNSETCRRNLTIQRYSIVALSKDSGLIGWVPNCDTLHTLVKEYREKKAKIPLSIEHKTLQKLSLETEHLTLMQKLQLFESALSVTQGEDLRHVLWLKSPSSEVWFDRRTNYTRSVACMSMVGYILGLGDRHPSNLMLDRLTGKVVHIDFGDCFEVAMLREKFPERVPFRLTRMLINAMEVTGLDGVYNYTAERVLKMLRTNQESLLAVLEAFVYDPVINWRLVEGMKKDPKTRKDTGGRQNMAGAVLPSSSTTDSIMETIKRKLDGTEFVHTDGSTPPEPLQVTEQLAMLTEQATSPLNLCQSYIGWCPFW

In assay [2] the target is FLAG-AMPR (P. aeruginosa PA14) (UniProt P24734).
Assay [3] has as its target FLAG-PHZA1 (P. aeruginosa PA14) (UniProt Q9HWH1).
Assay [4] has as its target FLAG::LET-363 (C. elegans) (UniProt Q95Q95).

No constants are given. Whether binding was seen depends on the method and setting. In cells and extracts the contact can be indirect. Some entries that bind do so weakly or less than the wild type. Where a sequence is shown, tags or fusion partners need not be part of it.

Data on three molecules can be found in publication doi:10.1101/2024.01.31.578330.

Take “FLAG::LET-363 (from UniProt Q95Q95 1-2697)”: the binding result in assay [1] is “binds”.

B1: His-PAR-5 (protein, UniProt P41932 1-248)
chain: MSDTVEELVQRAKLAEQAERYDDMAAAMKKVTEQGQELSNEERNLLSVAYKNVVGARRSSWRVISSIEQKTEGSEKKQQLAKEYRVKVEQELNDICQDVLKLLDEFLIVKAGAAESKVFYLKMKGDYYRYLAEVASEDRAAVVEKSQKAYQEALDIAKDKMQPTHPIRLGLALNFSVFYYEILNTPEHACQLAKQAFDDAIAELDTLNEDSYKDSTLIMQLLRDNLTLWTSDVGAEDQEQEGNQEAGN
As to B1, the binding result in assay [2] and in assay [3] was “binds” in each case.

B2: GFP::PAR-5 (protein, UniProt P41932 1-248)
chain: MSDTVEELVQRAKLAEQAERYDDMAAAMKKVTEQGQELSNEERNLLSVAYKNVVGARRSSWRVISSIEQKTEGSEKKQQLAKEYRVKVEQELNDICQDVLKLLDEFLIVKAGAAESKVFYLKMKGDYYRYLAEVASEDRAAVVEKSQKAYQEALDIAKDKMQPTHPIRLGLALNFSVFYYEILNTPEHACQLAKQAFDDAIAELDTLNEDSYKDSTLIMQLLRDNLTLWTSDVGAEDQEQEGNQEAGN
Regarding B2, the binding entry in assay [4] is on record as “binds”.
